# Results: PubChem BioAssay AID2685 (National Center for Advancing Translational Sciences (NCATS), 2010)
# About 2,100 (0.66%) of roughly 320,000 compounds were called active. Inconclusive results, whose numbers are uncertain, are shown with a selection of clear calls. The call rests on the fitted dose curve; in most records, active means well fitted inhibition curve with a large enough effect in the signal ratio, with a control signal flat (not every such curve was filed as active); inconclusive means small, poorly fitted or top-dose-only effect, or effect the other way, or a change in a side signal; inactive means flat fitted curve, though single readings scatter; the % refers to the signal ratio. Potencies of inconclusive entries are doubtful fits and often do not repeat.
# Assay: qHTS Assay for Lipid Storage Modulators in Drosophila S3 Cells
# Settings: BODIPY lipid droplet fluorescence, 18-24 h, cells fed with added oleic acid; lipid storage change, negative = inhibition: at 46.1 µM (top of the series) unless noted
# Method in brief: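 Drosophila S3 cells got compounds at several concentrations plus oleic acid (400 uM solution). Laser-scanning cytometry with 488 nm excitation read lipid droplets at 500-530 nm and cells at 575-640 nm. Percent activity was relative to 20 uM Triacsin C.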
# On the % scale 0 is the no-effect control and ±100 the full control effect; potency means the concentration at half of the fitted maximal effect.
SMILES,Potency,"lipid storage change, negative = inhibition"
CN1CCN(c2ccc(S(=O)(=O)N3CCCCC3)cc2NC(=O)COc2cccc(Cl)c2)CC1,"inconclusive: 1460 nM [activator, full curve, poor fit]",
Cc1ccc(C(=O)NCCCNC(=O)COc2ccc(C)c(C)c2)cn1,"inconclusive: 6510 nM [falling, single point]",
COC(CNC(=O)Cn1ncc2ccsc2c1=O)OC,"inconclusive: 920 nM [falling, full curve]",
CC(Sc1nnc(-c2cccs2)n1C1CC1)C(=O)NCC1CCCO1 (centres undefined),"inconclusive: 23100 nM [activator, single point]",
O=C(CN1CCCCC1)N1c2ccccc2Oc2ccccc21,,inconclusive: -1.47%
CC(OC(=O)c1ccc2ccccc2n1)C(=O)Nc1ccc(N2CCOCC2)cc1 (centres undefined),"inconclusive: 2590 nM [activator, partial curve]",
c1ccc(COCCC2CO2)cc1 (centres undefined),"inconclusive: 9200 nM [activator, partial curve]",
CC1CCN(C(=O)CN2C(=O)NC(c3ccccc3)(c3ccccc3)C2=O)CC1,"inconclusive: 580 nM [falling, full curve, poor fit]",
COc1ccc(CCNC(=O)c2nnc(Cc3c(F)cccc3Cl)o2)cc1OC,"inconclusive: 18400 nM [activator, partial curve]",
COc1ccc(OCc2nnc3n2N=C(c2ccc(C)cc2)CS3)cc1,"inconclusive: 92 nM [rising, full curve, poor fit]",
S=C(NCc1cccc(Cl)c1)NCc1ccco1,,inactive: -19.9%
O=C(NCCOc1ccc(Cl)cc1)c1ccc2c(c1)OCCO2,,inconclusive: -12.2%
CNc1nc(-c2ccccc2)nc(-c2ccccc2)c1C#N,"inconclusive: 92 nM [activator, full curve, poor fit]",
CC1CCC(N2CCN(S(=O)(=O)Cc3ccccc3)CC2)CC1 (centres undefined),"inconclusive: 651 nM [activator, full curve, poor fit]",
O=C(CSc1nc2ncccc2[nH]1)Nc1ccc2c(c1)OCCO2,,inconclusive: 20.6%
S=C(NCc1ccncc1)Nc1ccc(Cl)cc1Cl,,inconclusive: -7.78%
Cc1csc(N2CCN(c3cc4c(cc3Cl)nc(-c3ccncc3)n4CCCN3CCCC3)CC2)n1,,inconclusive: -24.5%
COc1ccc(CNC(=O)C2CCN(S(=O)(=O)N3CCC4(CC3)OCCO4)CC2)c(OC)c1,,inconclusive: 7.3%
Cc1cc(Cl)c2oc(C(=O)N3CCC(O)(c4ccccc4)CC3)c(C)c2c1,"inconclusive: 29100 nM [activator, single point]",
NC(N)=NS(=O)(=O)c1ccc(NC(=S)NC(=O)Cc2ccc(Cl)cc2)cc1,,inconclusive: 26.9%
O=S(=O)(c1cccc(-c2cn3ccccc3n2)c1)N1CCCCC1,,inconclusive: -50.8%
COc1cccc(/C(C)=N/Nc2ncc(Cl)cc2Cl)c1,,inconclusive: 29.3%
COc1ccc(OC)c(S(=O)(=O)N2CCCC2C(=O)NC(C)c2ccccc2)c1 (centres undefined),,inconclusive: 5.15%
CN(C)c1ccc(-c2ccc([C@H]3[C@@H]4C=CCC[C@@]4(C)C(=O)N3Cc3ccccc3)c(F)c2)cc1,"inconclusive: 29100 nM [falling, single point]",
Cc1ccc(CNc2ncc(-c3ccc4c(c3)OCO4)n2C)cc1,"inconclusive: 9200 nM [activator, partial curve, poor fit]",

SMILES,Potency,"lipid storage change, negative = inhibition"
CC(=O)N1CCN(C(=O)c2ccccc2NS(=O)(=O)c2ccc(F)cc2)CC1,,inconclusive: -24.6%
Cc1ccccc1C(=O)OCc1cnc(Cl)s1,,inconclusive: 17.9% [at 9.22 µM]
CCOCCSc1nnc2nc(C)cc(C)n12,,inconclusive: -33.6%
COc1ccc(N2CCN(C(=O)c3cc(-c4ccc(F)cc4)[nH]c3C)CC2)cc1,,inconclusive: -32.9%
CCN(CC(=O)Nc1c(F)cccc1F)C(=O)c1ccc(-c2ccc(C(C)=O)cc2)o1,,inconclusive: 35%
Cc1ccccc1/C=N/NC(=O)Cn1cnc([N+](=O)[O-])n1,,inconclusive: -6.03%
Cc1ccc(S(=O)(=O)N2CCC(C(=O)N/N=C/c3ccncc3)CC2)cc1,,inconclusive: 22.8%
O=C(Oc1ccc2c(c1)OCO2)c1cc2c(s1)CCC2,,inconclusive: 1.01%
C=CCn1c(C)cc(C2=NNC(=Nc3ccc(C)cc3)SC2)c1C,,inconclusive: 34.7%
CCOC(=O)N1CCN(c2c(NCCCN(CC)CC)c(=O)c2=O)CC1,,inconclusive: -169%
COc1ccc(/C=N/NC(=O)c2cc(-c3ccccc3)nc3ccccc23)c(OC)c1,"inconclusive: 6510 nM [falling, single point]",
Cn1c(NCCCO)nc2ccccc21,"inconclusive: 51.7 nM [falling, full curve, poor fit]",
Cc1cccc(N2CCN(C(=O)C3CC(=O)N(C4CCCC4)C3)CC2)c1C (centres undefined),"inconclusive: 25900 nM [falling, single point]",
Cc1cc(C)nc(Nc2n[nH]c(-c3ccc(C(C)(C)C)cc3)n2)n1,,inconclusive: 41.7%
N/C(=N\OC(=O)Cc1ccc(-c2ccccc2)cc1)c1cccnc1,"inconclusive: 291 nM [rising, full curve]",
CC(C)c1ccccc1NC(=O)COC(=O)c1c2c(nc3ccccc13)CCN(Cc1ccccc1)C2,,inconclusive: 10.6%
CC(C)NC(=O)C(=O)NCCN1CCN(S(=O)(=O)c2ccc(Cl)cc2)CC1,,inconclusive: -4.32%
CC(=O)c1cccc(NS(=O)(=O)c2ccc(NC(=O)N3CCCCC3)cc2)c1,,inconclusive: -21.3%
Cc1cc(C(=O)C[N+]2(C)CCOCC2)c(C)n1-c1ccc(Br)cc1,,inconclusive: -3.71%
Cc1ccc(C)c(NC(=O)CN(C)C(=O)COc2cccc3c2OC(C)(C)C3)c1,,inconclusive: 0.876%
CC1=C(C(=O)Nc2ccccc2F)C(c2ccsc2)C2=C(CC(C)(C)CC2=O)N1 (centres undefined),,inconclusive: 38.3%
Cc1cccc(N(C(=O)Cn2nnc3ccccc32)C(C(=O)NCc2ccco2)c2ccncc2)c1 (centres undefined),"inconclusive: 411 nM [activator, partial curve, poor fit]",
CCC(=O)N1c2ccc(S(=O)(=O)N3CCN(c4ccccc4Cl)CC3)cc2CC1C (centres undefined),"inconclusive: 29100 nM [activator, single point]",
Cc1nn(-c2ccccc2)c2sc(C(=O)N3CCCCC3)cc12,,inconclusive: -134%
CCOC(=O)c1ccc(NC(=O)CC2C(=O)N(c3ccc(F)cc3)C(=O)N2CCCOC)cc1 (centres undefined),,inconclusive: -75.7%

# Single entries from the list:
# Under Potency, COc1ccc(CCNC(=O)c2nnc(Cc3c(F)cccc3Cl)o2)cc1OC reads inconclusive: 18400 nM [activator, partial curve]
# Under lipid storage change, negative = inhibition, Cc1ccccc1/C=N/NC(=O)Cn1cnc([N+](=O)[O-])n1 reads inconclusive: -6.03%
# Under Potency, N/C(=N\OC(=O)Cc1ccc(-c2ccccc2)cc1)c1cccnc1 reads inconclusive: 291 nM [rising, full curve]
# Under lipid storage change, negative = inhibition, CCN(CC(=O)Nc1c(F)cccc1F)C(=O)c1ccc(-c2ccc(C(C)=O)cc2)o1 reads inconclusive: 35%
# Under lipid storage change, negative = inhibition, O=S(=O)(c1cccc(-c2cn3ccccc3n2)c1)N1CCCCC1 reads inconclusive: -50.8%

# Following part

SMILES,Potency,"lipid storage change, negative = inhibition"
COc1ccc(CN(CC2CCC(C(=O)O)CC2)C(=S)Nc2cccc(C)c2)cc1 (centres undefined),,inconclusive: -23.4%
CC(C)Cn1c(=O)c2sccc2n2c(CCCC(=O)N3CCC(N4CCCCC4)CC3)nnc12,,inconclusive: -16.1%
COc1ccccc1COC(=O)Nc1c(C)nn(C)c1Cl,,inconclusive: 6.95%
S=C(NCC1CCCO1)Nc1ccc(Nc2ccccc2)cc1 (centres undefined),,inconclusive: -28.9%
COC(=O)c1ccc(/C=N\NC(=O)c2c(C)nc3ccc(Cl)cn23)cc1,,inconclusive: 105%
Cc1ccc2[nH]c(=O)c(CN(Cc3cccnc3)C(=O)c3ccncc3)cc2c1,"inconclusive: 10300 nM [activator, partial curve]",
O=C(Nc1ccccc1)Nc1nc(-c2ccc(F)c(F)c2)cs1,,inconclusive: -3.6%
Cc1cc(-c2nc(C)c(-c3nnc(SCC(=O)Nc4cc(Cl)cc(Cl)c4)n3C)s2)no1,,inconclusive: -28.9%
CC(=O)Nc1ccc(NC(=O)CN(C)S(=O)(=O)c2ccc3c(c2)CCC(=O)N3)cc1,,inconclusive: 95.2%
Cc1cc(C)cc(C(=O)Nn2cnnc2)c1,,inconclusive: 29.9%
CC1CCCC(C)N1C(=O)CSc1nnc(CSc2ncccn2)n1C (centres undefined),"inconclusive: 29100 nM [falling, single point]",
COC(=O)c1c(-c2ccc(C(C)(C)C)cc2)csc1NC(=O)C1C2CCC(O2)C1C(=O)O (centres undefined),"inconclusive: 13000 nM [falling, partial curve]",
c1cc2c(cc1-c1cnc3n1CCC3)OCCO2,,inconclusive: 54.5%
CCCOc1ccc(/C=N/NC(=O)C2CC2)c(OCCC)c1,,inconclusive: -31%
CCOc1cc(/C=C2/COc3ccccc3C2=O)ccc1OCC(=O)N(C)C,,inconclusive: -3.1%
CCOC(=O)Cc1csc(NC(=O)c2ccc(Cl)s2)n1,,inconclusive: -49.6%
O=C(Nc1ccccc1C(=O)N1CCCCC1)C1CCCCC1,"inconclusive: 820 nM [falling, full curve]",
COc1cccc(C(=O)NC(=S)N2c3ccccc3CC2C)c1OC (centres undefined),,inconclusive: -60.8%
N#C/C(=C\c1cccnc1)c1ccccc1[N+](=O)[O-],"inconclusive: 580 nM [falling, single point]",
O=[N+]([O-])c1cnc(Sc2ccncn2)s1,"inconclusive: 2590 nM [cytotoxic, full curve]",
CC(C)c1ccc(C2c3[nH]c4ccccc4c3C[C@H]3C(=O)N(c4ccccc4C(=O)N4CCC[C@H]4C(=O)O)C(=O)N23)cc1 (some centres undefined),,inconclusive: -9.26%
CCc1cccc(CC)c1NC(=O)Cn1c(-c2ccc(F)cc2)noc1=O,,inconclusive: -16.6%
CC(C)c1ccc(N(C(=O)c2cc3ccccc3oc2=O)C2C=CS(=O)(=O)C2)cc1 (centres undefined),,inconclusive: -23.6%
CCOC(=O)N1CCC(NC(=O)c2ccc3c(c2)N(C)C(=O)/C(=C/c2cccc(OC)c2)S3)CC1,active: 2910 nM,
